Measured values: patent US20150328249A1, “MODULATION OF MYOFIBER REPAIR BY ANTI-MYOSTATIN STRATEGIES AND/OR PPAR GAMMA LIGANDS, ALONE OR IN COMBINATION WITH STEM CELLS, FOR THE THERAPY OF CRITICAL LIMB ISCHEMIA AND OTHER ISCHEMIC PROCESSES AFFECTING THE SKELETAL MUSCLE” (LOS ANGELES BIOMEDICAL RESEARCH INSTITUTE AT HARBOR-UCLA …, priority 2012, published 2015)
For at least one compound, name, drawing or mass did not settle the structure.

Tests used:
ZDF rat model = ZDF rat model treated for 5 months with pioglitazone, renal glomerular tissue; assay type: in vivo; conditions: low dose pioglitazone
[1] = system: rat models for insulin resistance and T2DM; test: Low oral dose pioglitazone in rat models for insulin resistance and T2DM; assay type: in vivo

CCc1ccc(CCOc2ccc(CC3SC(=O)NC3=O)cc2)nc1 (stereo not drawn) [pioglitazone]
Oct 4+ nuclei (endogenous stem cells) in the kidney, decreased by T2DM (ZDF rat model; FIG. 17): counteraction of the decrease | fibrosis increased by T2DM (ZDF rat model; renal glomerular tissue): prevents these effects | pro-fibrotic connective tissue growth factor expression in the kidney ([1]; low dose, diabetic nephropathy): reduced | functional disorders and their underlying histopathology in the kidney and corpora cavernosa ([1]; low oral dose 0.6 mg/kg/day): prevents | glycemic control ([1]; low oral dose 0.6 mg/kg/day): does not exert glycemic control | chronic inflammation, lipofibrosis, and oxidative stress ([1]; low oral dose 0.6 mg/kg/day, kidney and corpora cavernosa): ameliorating
